Values of other authors as cited in PMC8075256, “Transport of Alzheimer’s associated amyloid-β catalyzed by P-glycoprotein” (PLOS ONE, 2021).

Test system: human P-gp
Conditions: relative to start; total movement; mean ± SD, n = 6; ref 35 McCormick et al. 2015

SMILES: COc1cccc2c1C(=O)c1c(O)c3c(c(O)c1C2=O)C[C@@](O)(C(C)=O)C[C@@H]3O[C@H]1C[C@H](N)[C@H](O)[C@H](C)O1 [Daunorubicin, daunorubicin]
- Center of mass position, End (3B5Z): -10.13 ± 2.72 Angstroms
